The test system of the assay is calcium channels. The conditions noted are these: read-out: IC50 values for blocking calcium channels; rat cerebellar granule cells, fura2 fluorescence, 37° C.

What is called IC50 is the concentration at which inhibition is half-maximal. In the case of `COC(=O)C1=C(C)NC(C)=C(C(=O)OC)C1c1ccccc1[N+](=O)[O-]` [Nifedipine], the IC50 amounted to 33 nM.
